# Measured values as given in US12642776B2, “Anticoccidial composition comprising stilbene-based compound, and use thereof” (CJ CHEILJEDANG CORPORATION, priority 2020, dated 2026).
# Some of these results come from one statement about several compounds together.
# Test system: Eimeria tenella protozoan (sporozoite)
# Assay: Direct killing effect against Eimeria tenella protozoan (sporozoite), microscopic count of alive sporozoites
# Conditions: tested 16 to 500 ppm
# Method: In the present example, protozoan (sporozoite) direct killing ability evaluation was conducted against 1 representative Eimeria kind known to be infected in most farms (E. tenella).
# A certain amount of oocysts of each coccidial protozoan was put in a tube containing glass beads and pulverized, and then to remove the crushed oocyst cell wall and other debris, internal sporocysts were purified using the percoll density gradient, and washed with PBS solution. A reagent comprising sodium taurocholic acid (Sigma aldrich, USA) and trypsin (Gibco, USA), respectively, was treated to sporocysts of Eimeria tenella for excystation of the internal sporozoites, and they were incubated, and then they were washed with PBS solution once and the protozoa were obtained.
# After reacting the pterostilbene, pinostilbene and anticoccidial agents, diclazuril and gallic acid (hereinafter, material) with the protozoan of Eimeria tenella at various concentrations of 16 to 500 ppm, respectively, only alive protozoa (sporozoites) were counted through microscopic observation.
row,Compound,concentration showing death rate of 50% or more against the protozoan [ppm]
1,"N#CC(c1ccc(Cl)cc1)c1c(Cl)cc(-n2ncc(=O)[nH]c2=O)cc1Cl (centres unmarked) [Diclazuril, diclazuril, reference compound]",> 500
2,"O=C(O)c1cc(O)c(O)c(O)c1 [Gallic acid, gallic acid, reference compound]",> 500
